The record followed here is patent US20150284436A1.

In test [1] the target is T1, TRX(C35A), tag-free (human) (UniProt P10599).
T1 sequence: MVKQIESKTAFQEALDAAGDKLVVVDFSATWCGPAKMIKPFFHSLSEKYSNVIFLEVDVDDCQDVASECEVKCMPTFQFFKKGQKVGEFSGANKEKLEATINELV
The test is described as follows: co-expression in E. coli and Ni-NTA co-purification, SDS-PAGE.

Test [2] has as its target T2, human TRX (thioredoxin), wild-type, tag-free (human) (UniProt P10599).
T2 sequence: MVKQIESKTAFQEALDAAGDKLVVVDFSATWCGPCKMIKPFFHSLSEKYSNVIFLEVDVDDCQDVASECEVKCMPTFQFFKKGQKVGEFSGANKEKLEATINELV
The description is as above.

The target of test [3] is T3, HA-tagged TXNIP (human) (UniProt Q9H3M7).
T3 sequence: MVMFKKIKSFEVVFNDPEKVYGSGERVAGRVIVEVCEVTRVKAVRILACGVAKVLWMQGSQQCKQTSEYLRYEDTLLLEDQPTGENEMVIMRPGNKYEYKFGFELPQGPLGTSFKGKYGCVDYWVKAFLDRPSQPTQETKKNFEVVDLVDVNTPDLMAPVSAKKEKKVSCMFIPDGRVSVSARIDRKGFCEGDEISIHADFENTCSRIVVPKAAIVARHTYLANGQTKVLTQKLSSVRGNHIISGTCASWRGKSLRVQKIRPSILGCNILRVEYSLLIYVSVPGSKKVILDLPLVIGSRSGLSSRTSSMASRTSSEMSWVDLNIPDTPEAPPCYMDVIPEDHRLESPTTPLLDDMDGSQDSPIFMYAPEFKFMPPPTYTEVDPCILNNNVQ
The test is described as follows: co-immunoprecipitation from 293T lysates, Western blot. (In general: Immunoblotting shows a protein as a band on a membrane.)

Test [4] deals with T4, FLAG-tagged TXNIP (human) (UniProt Q9H3M7).
T4 sequence: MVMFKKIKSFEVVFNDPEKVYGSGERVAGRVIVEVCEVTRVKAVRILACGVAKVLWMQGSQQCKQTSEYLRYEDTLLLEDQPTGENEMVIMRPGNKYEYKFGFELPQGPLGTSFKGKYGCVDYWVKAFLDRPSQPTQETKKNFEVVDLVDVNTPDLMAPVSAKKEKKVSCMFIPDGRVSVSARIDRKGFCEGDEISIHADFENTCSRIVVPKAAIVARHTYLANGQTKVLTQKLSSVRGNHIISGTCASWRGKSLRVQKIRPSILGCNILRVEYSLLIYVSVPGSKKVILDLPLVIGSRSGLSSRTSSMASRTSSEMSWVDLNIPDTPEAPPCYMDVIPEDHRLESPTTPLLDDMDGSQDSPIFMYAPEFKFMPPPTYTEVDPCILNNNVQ
The test is described as follows: GST pull-down / co-IP from 293T lysates, Western blot.

Test [5] has as its target GST-fused TXNIP (human) (UniProt Q9H3M7). Put plainly: glutathione bead pull-down of GST-fused TXNIP from HEK 293T lysates, SDS-PAGE and Western blot.
The target of test [6] is T2, human TRX (thioredoxin), wild-type, tag-free (human). Put plainly: GST pull-down from transfected HEK 293T lysates, immunoblot.
Test [7] shares this target. The test is described as follows: GST pull-down from transfected HEK 293T lysates (FIG. 6B).

No constants are given. Whether binding was seen depends on the method and setting. Binding seen in cells or lysates may run through a third protein. Some binding calls cover weakened binding; strength is not graded here. Where a sequence is shown, tags or fusion partners need not be part of it.

B1: N-TXNIP (N-terminal domain of TXNIP, residues 3-156) (protein)
chain: MFKKIKSFEVVFNDPEKVYGSGERVAGRVIVEVCEVTRVKAVRILACGVAKVLWMQGSQQCKQTSEYLRYEDTLLLEDQPTGENEMVIMRPGNKYEYKFGFELPQGPLGTSFKGKYGCVDYWVKAFLDRPSQPTQETKKNFEVVDLVDVNTPDL
In the case of B1, the binding entry in test [1] and in test [2] was “binds” each time.

B2: FLAG-tagged TXNIP (protein)
chain: MVMFKKIKSFEVVFNDPEKVYGSGERVAGRVIVEVCEVTRVKAVRILACGVAKVLWMQGSQQCKQTSEYLRYEDTLLLEDQPTGENEMVIMRPGNKYEYKFGFELPQGPLGTSFKGKYGCVDYWVKAFLDRPSQPTQETKKNFEVVDLVDVNTPDLMAPVSAKKEKKVSCMFIPDGRVSVSARIDRKGFCEGDEISIHADFENTCSRIVVPKAAIVARHTYLANGQTKVLTQKLSSVRGNHIISGTCASWRGKSLRVQKIRPSILGCNILRVEYSLLIYVSVPGSKKVILDLPLVIGSRSGLSSRTSSMASRTSSEMSWVDLNIPDTPEAPPCYMDVIPEDHRLESPTTPLLDDMDGSQDSPIFMYAPEFKFMPPPTYTEVDPCILNNNVQ
Regarding B2, in test [3], the binding entry is “binds”.

B3: GST-fused TXNIP with Cys63 substituted with serine (protein)
chain: MVMFKKIKSFEVVFNDPEKVYGSGERVAGRVIVEVCEVTRVKAVRILACGVAKVLWMQGSQQSKQTSEYLRYEDTLLLEDQPTGENEMVIMRPGNKYEYKFGFELPQGPLGTSFKGKYGCVDYWVKAFLDRPSQPTQETKKNFEVVDLVDVNTPDLMAPVSAKKEKKVSCMFIPDGRVSVSARIDRKGFCEGDEISIHADFENTCSRIVVPKAAIVARHTYLANGQTKVLTQKLSSVRGNHIISGTCASWRGKSLRVQKIRPSILGCNILRVEYSLLIYVSVPGSKKVILDLPLVIGSRSGLSSRTSSMASRTSSEMSWVDLNIPDTPEAPPCYMDVIPEDHRLESPTTPLLDDMDGSQDSPIFMYAPEFKFMPPPTYTEVDPCILNNNVQ
In the case of B3, the binding result in test [4] is “binds”.

B4: GST-fused TXNIP (protein)
chain: MVMFKKIKSFEVVFNDPEKVYGSGERVAGRVIVEVCEVTRVKAVRILACGVAKVLWMQGSQQCKQTSEYLRYEDTLLLEDQPTGENEMVIMRPGNKYEYKFGFELPQGPLGTSFKGKYGCVDYWVKAFLDRPSQPTQETKKNFEVVDLVDVNTPDLMAPVSAKKEKKVSCMFIPDGRVSVSARIDRKGFCEGDEISIHADFENTCSRIVVPKAAIVARHTYLANGQTKVLTQKLSSVRGNHIISGTCASWRGKSLRVQKIRPSILGCNILRVEYSLLIYVSVPGSKKVILDLPLVIGSRSGLSSRTSSMASRTSSEMSWVDLNIPDTPEAPPCYMDVIPEDHRLESPTTPLLDDMDGSQDSPIFMYAPEFKFMPPPTYTEVDPCILNNNVQ
For the molecule B4, the binding result in test [5] and in test [4] was “binds” in each case.

B5: full-length TXNIP (thioredoxin-interacting protein) (protein)
chain: MVMFKKIKSFEVVFNDPEKVYGSGERVAGRVIVEVCEVTRVKAVRILACGVAKVLWMQGSQQCKQTSEYLRYEDTLLLEDQPTGENEMVIMRPGNKYEYKFGFELPQGPLGTSFKGKYGCVDYWVKAFLDRPSQPTQETKKNFEVVDLVDVNTPDLMAPVSAKKEKKVSCMFIPDGRVSVSARIDRKGFCEGDEISIHADFENTCSRIVVPKAAIVARHTYLANGQTKVLTQKLSSVRGNHIISGTCASWRGKSLRVQKIRPSILGCNILRVEYSLLIYVSVPGSKKVILDLPLVIGSRSGLSSRTSSMASRTSSEMSWVDLNIPDTPEAPPCYMDVIPEDHRLESPTTPLLDDMDGSQDSPIFMYAPEFKFMPPPTYTEVDPCILNNNVQ
For B5, the binding entry in test [6] and in test [7] was “binds” in each case.

B6: GST-fused TXNIP with Cys247 substituted with serine (protein)
chain: MVMFKKIKSFEVVFNDPEKVYGSGERVAGRVIVEVCEVTRVKAVRILACGVAKVLWMQGSQQCKQTSEYLRYEDTLLLEDQPTGENEMVIMRPGNKYEYKFGFELPQGPLGTSFKGKYGCVDYWVKAFLDRPSQPTQETKKNFEVVDLVDVNTPDLMAPVSAKKEKKVSCMFIPDGRVSVSARIDRKGFCEGDEISIHADFENTCSRIVVPKAAIVARHTYLANGQTKVLTQKLSSVRGNHIISGTSASWRGKSLRVQKIRPSILGCNILRVEYSLLIYVSVPGSKKVILDLPLVIGSRSGLSSRTSSMASRTSSEMSWVDLNIPDTPEAPPCYMDVIPEDHRLESPTTPLLDDMDGSQDSPIFMYAPEFKFMPPPTYTEVDPCILNNNVQ
For the molecule B6, the binding result in test [4] was “binds”.

B7: T-TXNIP(C170S/C205S/C267S) (protein)
chain: MFKKIKSFEVVFNDPEKVYGSGERVAGRVIVEVCEVTRVKAVRILACGVAKVLWMQGSQQCKQTSEYLRYEDTLLLEDQPTGENEMVIMRPGNKYEYKFGFELPQGPLGTSFKGKYGCVDYWVKAFLDRPSQPTQETKKNFEVVDLVDVNTPDLMAPVSAKKEKKVSSMFIPDGRVSVSARIDRKGFCEGDEISIHADFENTSSRIVVPKAAIVARHTYLANGQTKVLTQKLSSVRGNHIISGTCASWRGKSLRVQKIRPSILGSNILRVEYSLLIYVSVPGSKKVILDLPLVIGSRSGLSSRTSSMASRTSSEM
Turning to B7, in test [6], the binding result is reported as “binds”.
